Experimental data taken from PMC7332966.
For at least one entry, the source does not settle the construct or the ends of the probe. For part of these data: A negative result means that nothing was seen under these conditions. For part of these data: The comparison behind a weaker result is the experiment's own reference, which may not be listed here. For part of these data: Tags and fusion partners may be left off the protein sequences shown. For part of these data: At least one verdict was read from the data and is not stated in words by the source. For part of these data: Whether high values mean tight binding is not given here for every scale.

The chains behind the UniProt entries cited, without tags or fusion partners. Where a name states a change or a piece, a line headed by the entry shows the natural chain unless it says otherwise.
UniProt Q9BXW9: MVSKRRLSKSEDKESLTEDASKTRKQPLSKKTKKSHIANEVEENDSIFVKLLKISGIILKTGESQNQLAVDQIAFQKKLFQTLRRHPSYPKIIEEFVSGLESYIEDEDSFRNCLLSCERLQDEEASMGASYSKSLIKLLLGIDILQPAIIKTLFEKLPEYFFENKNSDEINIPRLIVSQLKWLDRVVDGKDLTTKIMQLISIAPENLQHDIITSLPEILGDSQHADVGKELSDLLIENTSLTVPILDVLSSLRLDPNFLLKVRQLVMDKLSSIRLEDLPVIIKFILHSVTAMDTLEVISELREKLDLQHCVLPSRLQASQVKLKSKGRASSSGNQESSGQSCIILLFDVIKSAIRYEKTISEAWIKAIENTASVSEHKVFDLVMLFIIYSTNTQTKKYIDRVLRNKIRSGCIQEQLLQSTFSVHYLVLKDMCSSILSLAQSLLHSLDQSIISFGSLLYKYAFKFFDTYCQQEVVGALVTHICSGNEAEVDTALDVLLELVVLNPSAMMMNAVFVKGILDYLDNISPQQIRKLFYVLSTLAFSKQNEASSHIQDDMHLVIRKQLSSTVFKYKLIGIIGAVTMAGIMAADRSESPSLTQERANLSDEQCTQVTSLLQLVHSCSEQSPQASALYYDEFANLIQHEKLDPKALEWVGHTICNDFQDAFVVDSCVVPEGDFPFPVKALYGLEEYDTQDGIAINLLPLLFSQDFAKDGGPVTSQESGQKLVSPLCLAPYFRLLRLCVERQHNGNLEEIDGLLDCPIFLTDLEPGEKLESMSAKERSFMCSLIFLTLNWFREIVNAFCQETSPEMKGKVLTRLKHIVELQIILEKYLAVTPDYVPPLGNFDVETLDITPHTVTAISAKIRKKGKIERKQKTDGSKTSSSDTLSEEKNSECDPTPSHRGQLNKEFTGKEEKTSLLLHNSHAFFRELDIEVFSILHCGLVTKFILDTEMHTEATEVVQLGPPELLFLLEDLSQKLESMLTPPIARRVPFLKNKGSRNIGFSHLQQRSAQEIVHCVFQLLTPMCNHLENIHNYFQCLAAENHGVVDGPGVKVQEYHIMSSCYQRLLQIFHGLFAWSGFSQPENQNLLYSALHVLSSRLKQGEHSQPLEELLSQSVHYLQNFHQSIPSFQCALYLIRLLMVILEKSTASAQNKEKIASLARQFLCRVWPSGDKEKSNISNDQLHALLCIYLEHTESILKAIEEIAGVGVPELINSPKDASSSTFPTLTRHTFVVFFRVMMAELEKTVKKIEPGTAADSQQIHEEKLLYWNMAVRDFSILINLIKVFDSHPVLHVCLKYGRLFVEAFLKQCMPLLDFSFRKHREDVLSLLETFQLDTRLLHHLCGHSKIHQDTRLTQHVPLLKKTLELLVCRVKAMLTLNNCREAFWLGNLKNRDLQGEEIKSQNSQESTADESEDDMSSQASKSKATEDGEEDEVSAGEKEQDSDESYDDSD

What was measured:
[1] = tested on: FANCI (I) + FANCD2-Ub (D2Ub); experiment: EMSA; conditions: EMSA: 16 mM Tris-HCl pH 8, 150 mM NaCl, 4.4% glycerol, 0.07 mg/ml BSA, 7 mM DTT, 4 mM EDTA, 2 nM DNA, on ice 20 min, 4% PAGE in 0.5x TBE (4 C), recombinant protein, label: 5' IRDye700 on both strands
FANCI (I) + FANCD2 (D2) [2] = experiment: EMSA; conditions: EMSA: 16 mM Tris-HCl pH 8, 150 mM NaCl, 4.4% glycerol, 0.07 mg/ml BSA, 7 mM DTT, 4 mM EDTA, 2 nM DNA, on ice 20 min, 4% PAGE in 0.5x TBE (4 C), recombinant protein, label: 5' IRDye700 on both strands
[3] = tested on: FANCI R1285Q + FANCD2-Ub (D2Ub); experiment: EMSA; conditions: 150 mM NaCl, only small increase over R1285Q I+D2; EMSA: 16 mM Tris-HCl pH 8, 150 mM NaCl, 4.4% glycerol, 0.07 mg/ml BSA, 7 mM DTT, 4 mM EDTA, 2 nM DNA, on ice 20 min, 4% PAGE in 0.5x TBE (4 C); recombinant protein; protein details: His6 (N-term),FLAG (EMSA), His6 removed by 3C; label: 5' IRDye700 on both strands
[4] = tested on: FANCI-Ub (IUb) + FANCD2-Ub (D2Ub); experiment: EMSA; conditions: 150 mM NaCl, comparable to I+D2Ub; EMSA: 16 mM Tris-HCl pH 8, 150 mM NaCl, 4.4% glycerol, 0.07 mg/ml BSA, 7 mM DTT, 4 mM EDTA, 2 nM DNA, on ice 20 min, 4% PAGE in 0.5x TBE (4 C); recombinant protein; label: 5' IRDye700 on both strands
[5] = tested on: FANCI R1285Q + FANCD2 (D2); experiment: EMSA; conditions: 150 mM NaCl, less than P5+P4; EMSA: 16 mM Tris-HCl pH 8, 150 mM NaCl, 4.4% glycerol, 0.07 mg/ml BSA, 7 mM DTT, 4 mM EDTA, 2 nM DNA, on ice 20 min, 4% PAGE in 0.5x TBE (4 C); recombinant protein; label: 5' IRDye700 on both strands
[6] = molecular target: FANCD2-Ub (D2Ub) (Homo sapiens) (UniProt Q9BXW9); experiment: EMSA; conditions: 150 mM NaCl; EMSA: 16 mM Tris-HCl pH 8, 150 mM NaCl, 4.4% glycerol, 0.07 mg/ml BSA, 7 mM DTT, 4 mM EDTA, 2 nM DNA, on ice 20 min, 4% PAGE in 0.5x TBE (4 C); recombinant protein; protein details: FLAG (EMSA), His6 removed by 3C; label: 5' IRDye700 on both strands
[7] = tested on: FANCI (I) + FANCD2-Ub (D2Ub); experiment: PIFE; conditions: PIFE: 150 mM NaCl, 125 nM DNA, 22 C., recombinant protein, label: 5' IRDye700 on both strands; for binding result: Kd only in figure
FANCI (I) + FANCD2 (D2) [8] = experiment: PIFE; conditions: 100 mM NaCl, Kd only in figure; PIFE: 150 mM NaCl, 125 nM DNA, 22 C.; recombinant protein; label: 5' IRDye700 on both strands
[9] = tested on: FANCI R1285Q + FANCD2-Ub (D2Ub); experiment: PIFE; conditions: not substantially enhanced by D2 ubiquitination, unlike WT, Kd only in bar graph; PIFE: 150 mM NaCl, 125 nM DNA, 22 C.; recombinant protein; protein details: His6 (N-term),FLAG (EMSA), His6 removed by 3C; label: 5' IRDye700 on both strands
[10] = tested on: FANCI-Ub (IUb) + FANCD2-Ub (D2Ub); experiment: PIFE; conditions: PIFE: 150 mM NaCl, 125 nM DNA, 22 C., recombinant protein, label: 5' IRDye700 on both strands
[11] = tested on: FANCI-Ub(F4A) + FANCD2-Ub (D2Ub); experiment: PIFE; conditions: Ub F4A on FANCI; PIFE: 150 mM NaCl, 125 nM DNA, 22 C.; recombinant protein; protein details: FLAG (EMSA), His6 removed by 3C; label: 5' IRDye700 on both …
[12] = molecular target: FANCD2-Ub (D2Ub) (Homo sapiens) (UniProt Q9BXW9); experiment: PIFE; conditions: 150 mM NaCl, up to uM range; PIFE: 150 mM NaCl, 125 nM DNA, 22 C.; recombinant protein; protein details: FLAG (EMSA), His6 removed by 3C; label: 5' IRDye700 on both strands
[13] = molecular target: T1, FANCI-Ub (IUb) (Homo sapiens) (UniProt Q9NVI1); experiment: PIFE; conditions: IUb alone does not bind efficiently (up to 1.5 uM); PIFE: 150 mM NaCl, 125 nM DNA, 22 C.; recombinant protein; protein details: His6-TEV-V5 (N-term, EMSA); label: 5' IRDye700 on both strands
T1 sequence (looked up, limits assumed): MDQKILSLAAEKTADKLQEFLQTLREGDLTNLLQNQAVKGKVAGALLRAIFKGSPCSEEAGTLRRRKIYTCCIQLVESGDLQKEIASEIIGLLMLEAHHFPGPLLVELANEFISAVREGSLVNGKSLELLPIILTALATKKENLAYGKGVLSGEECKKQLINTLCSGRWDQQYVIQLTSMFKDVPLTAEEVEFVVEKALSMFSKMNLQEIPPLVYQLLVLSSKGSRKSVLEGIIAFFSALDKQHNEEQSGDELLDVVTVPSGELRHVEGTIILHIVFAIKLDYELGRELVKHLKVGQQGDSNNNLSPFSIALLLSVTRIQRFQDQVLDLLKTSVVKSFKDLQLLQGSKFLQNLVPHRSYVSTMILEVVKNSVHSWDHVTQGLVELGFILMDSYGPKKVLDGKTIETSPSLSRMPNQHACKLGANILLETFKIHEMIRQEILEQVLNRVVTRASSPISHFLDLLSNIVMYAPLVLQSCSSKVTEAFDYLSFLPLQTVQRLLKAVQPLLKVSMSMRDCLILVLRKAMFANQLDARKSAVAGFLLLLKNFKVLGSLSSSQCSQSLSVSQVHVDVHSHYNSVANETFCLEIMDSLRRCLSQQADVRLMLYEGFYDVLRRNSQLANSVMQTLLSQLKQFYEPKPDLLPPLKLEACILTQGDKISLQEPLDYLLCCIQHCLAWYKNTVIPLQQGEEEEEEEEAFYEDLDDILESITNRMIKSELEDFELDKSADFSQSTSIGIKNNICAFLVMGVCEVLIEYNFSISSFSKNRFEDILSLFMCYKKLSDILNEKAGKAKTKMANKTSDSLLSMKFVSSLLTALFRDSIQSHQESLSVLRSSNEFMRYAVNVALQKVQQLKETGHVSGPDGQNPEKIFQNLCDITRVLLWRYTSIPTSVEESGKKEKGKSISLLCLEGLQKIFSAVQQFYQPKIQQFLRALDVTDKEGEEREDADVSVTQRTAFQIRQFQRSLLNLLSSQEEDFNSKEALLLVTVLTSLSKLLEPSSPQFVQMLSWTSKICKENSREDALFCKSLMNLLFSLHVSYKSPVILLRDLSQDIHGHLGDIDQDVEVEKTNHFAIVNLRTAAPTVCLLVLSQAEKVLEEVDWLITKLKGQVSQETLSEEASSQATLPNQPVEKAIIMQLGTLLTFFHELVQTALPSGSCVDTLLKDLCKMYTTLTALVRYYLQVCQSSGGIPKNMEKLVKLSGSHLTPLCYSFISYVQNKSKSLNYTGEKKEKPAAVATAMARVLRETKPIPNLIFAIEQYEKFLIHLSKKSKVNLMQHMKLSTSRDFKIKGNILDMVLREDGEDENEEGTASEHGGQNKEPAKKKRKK

[14] = tested on: FANCI-Ub (IUb) + FANCD2 (D2); experiment: PIFE; conditions: tighter than I+D2, weaker than IUb+D2Ub, Kd only in bar graph; PIFE: 150 mM NaCl, 125 nM DNA, 22 C.; recombinant protein; label: 5' IRDye700 on both strands
[15] = tested on: FANCI-Ub(I44A) + FANCD2-Ub (D2Ub); experiment: PIFE; conditions: Ub I44A on FANCI; PIFE: 150 mM NaCl, 125 nM DNA, 22 C.; recombinant protein; protein details: FLAG (EMSA), His6 removed by 3C; label: 5' IRDye700 on both strands
[16] = 200 mM NaCl, modest salt effect, Kd only in figure

CGATCGGTAACGTATGCTGAATCTGGTGCTGG (double strand) [ds32F]
no binding: binding result [6] | binding result [12]
binds: binding result ([1]; 100 mM NaCl, Kd only in figure) | binding result ([1]; 150 mM NaCl) | binding result [1, 16] | binding result ([1]; His6-FANCI, 150 mM NaCl) | binding result (FANCI (I) + FANCD2 (D2) [2]; 100 mM NaCl, Kd only in figure) | binding result (FANCI (I) + FANCD2 (D2) [2]; [16]) | binding result [4] | binding result [5] | binding result ([7]; 100 mM NaCl) | binding result ([7]; 200 mM NaCl, highly salt sensitive) | binding result (FANCI (I) + FANCD2 (D2) [8]) | binding result ([10]; 150 mM NaCl, not significantly different from I+D2Ub) | binding result ([10]; WT ubiquitin on FANCI) | binding result [11] | binding result [15]
binds more weakly: binding result (FANCI (I) + FANCD2 (D2) [2]; 150 mM NaCl, weaker than I+D2Ub) | binding result (FANCI (I) + FANCD2 (D2) [2]; His6-FANCI, 150 mM NaCl, weaker than I+D2Ub) | binding result [3] | binding result [9] | binding result [13] | binding result [14]
10: binding signal (fold affinity enhancement vs I+D2) ([7]; 150 mM NaCl, Kd only in bar graph)
